Results are given in words; binding and its absence hold for the method and conditions named. A result given as binding can be weak or reduced; the word gives no strength.
B1: Vx10 (antibody, V domains shown)
VH: QVQLQQSGAELAKPGASVKMSCKASGYTFTNYWIHWIKQRPGQGLEWIGYIDPNTVYTDYNQRFEDKATLTADKSSNTAYMQLNSLTSEDSAVYYCSRGGKRGVDSWGQGTSVTVSS
VL: DVVMTQTPLSLPVSLGDQASISCRSSQSLENSNGDTYLNWYLQKPGQSPQLLIYRVSNRFSGVLDRFSGSGSGTDFTLQISRVEAEDLGVYFCLQVSHVPWTFGGGTNLEIK
B2: Vx11 (antibody, V domains shown)
VH: EVQLQQSGAQLVKPGTSMKLSCKASGYTFTNYFLYWVKQRPGQGLEWIGDINPNAGSTNLNERFKSKATLTVDKSSSTAYLQLSGLTSEDSAVYYCTRGGYTMDYWGQGTSVTVSS
VL: B1 VL
B3: Vx13 (antibody, V domains shown)
VH: EVQLQQSGPEVVKPGASVRISCKASDYTFTNYYIHWVRQRPGQGLEWIGWIYPGNNNNKYNEKFKGKATLTEDTSSSTAYMQLSSLTSEDSAVYFCARGGYTMDYWGQG
VL: DVLMTQTPLSLPVSLGDQASISCRSSQSLVHSNGNTYLHWYLQKPGQSPNLLIYKVSNRFSGVPDRFSGSGSGTDFTLKINRVETEDLGIYFCSQSTHVLTFGAG

Target: dog CD47 (dog)
Assay: flow cytometry on dog RBCs

binding, binds:
B1
B2
B3

Reference: patent US20210324075A1
